Results deposited as PubChem BioAssay AID1224826 (NIAID, 2016)

Aim: 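Regulators of Tlr4 signalling leading to Tnf-alpha expression in macrophages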 (primary screen)
Cells: RAW264.7 G9 macrophages from mouse bearing reporters for p65 (GFP) and the Tnf promoter (mCherry)
Reagents: siRNA pool against mouse genes, 100 nM
Timing: 16 h of LPS stimulation, after 2 days of siRNA transfection
Conditions: bacterial lipopolysaccharide (Salmonella minnesota R595), 10 ng/ml
Detection: 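Imaged Tnf reporter mCherry in nuclei, minus background, normalised per plate to the median and expressed as robust z-scores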
Reading the numbers: Tnf reporter robust z-score: higher = stronger Tnf promoter reporter signal after LPS; Tnf reporter intensity: higher = stronger Tnf promoter reporter signal
Active means: 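a well counts as active at a score of -1.3 or below (Tlr4 knock-down control median) or above 3 (raised signal); controls and wells holding fewer than 50 cells are excluded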
Meaning of the calls: active = Tnf reporter clearly lowered or raised; inactive = no clear change in Tnf reporter
The whole screen tested about 17,000 reagents; this is a part drawn at random. About 1,110 of them (6.6%) count as active. 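Active means lowered or raised reporter signal; replicate intensities are raw and not normalised per plate.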

| target | Tnf reporter robust z-score | fewer than 50 cells in well | Tnf reporter intensity, replicate 1 | Tnf reporter intensity, replicate 2 | Outcome |
| --- | --- | --- | --- | --- | --- |
| Fam135a | 1.66 | enough cells in well | 284 | 118 | inactive |
| Ccn2 | -0.47 | enough cells in well | 203 | 166 | inactive |
| Zfp36l1 | -0.59 | enough cells in well | 197 | 170 | inactive |
| Scgb1a1 | -1.57 | enough cells in well | 149 | 86.6 | active |
| Scai | -0.12 | enough cells in well | 210 | 97.4 | inactive |
| Vmn1r218 | -0.92 | enough cells in well | 98.5 | 47.8 | inactive |
| Pknox2 | 0.12 | enough cells in well | 139 | 131 | inactive |
| Tmem242 | 1.48 | enough cells in well | 136 | 227 | inactive |
| Gprc5b | 0.35 | enough cells in well | 237 | 337 | inactive |
| Pknox1 | 0.56 | enough cells in well | 298 | 223 | inactive |
| Mug2 | -1.18 | enough cells in well | 159 | 51.1 | inactive |
| Fra10ac1 | 0.87 | enough cells in well | 210 | 198 | inactive |
| Or4k5 | 3.69 | enough cells in well | 257 | 219 | active |
| Ints4 | – | fewer than 50 cells per well; well left out of calls | 203 | 46.9 | inactive |
| Osgin1 | – | fewer than 50 cells per well; well left out of calls | 250 | 145 | inactive |
| Zfp64 | 0 | enough cells in well | 234 | 225 | inactive |
| Rab3c | 0.23 | enough cells in well | 136 | 143 | inactive |
| Loxl4 | 1.1 | enough cells in well | 218 | 236 | inactive |
| Adgrv1 | 0.49 | enough cells in well | 327 | 222 | inactive |
| Or5p50 | 0.89 | enough cells in well | 100 | 154 | inactive |
| Rad23b | 0.14 | enough cells in well | 350 | 197 | inactive |
| Nup50 | -0.99 | enough cells in well | 132 | 58.4 | inactive |
| Or4f7 | -1.45 | enough cells in well | 97.8 | 57.6 | active |
| Lamb3 | 0.16 | enough cells in well | 262 | 152 | inactive |
| Ryk | -0.91 | enough cells in well | 145 | 104 | inactive |
| Or4c105 | 0.28 | enough cells in well | 184 | 182 | inactive |
| Stard7 | 2.49 | enough cells in well | 269 | 104 | inactive |
| Mmp15 | -0.09 | enough cells in well | 201 | 245 | inactive |
| Gpx3 | -0.41 | enough cells in well | 202 | 148 | inactive |
| Dock7 | – | fewer than 50 cells per well; well left out of calls | 73.8 | 64.5 | inactive |
| Rplp0 | -1.66 | enough cells in well | 93 | 65.2 | active |
| Tm9sf1 | 0.45 | enough cells in well | 112 | 128 | inactive |
| Enpp6 | -0.46 | enough cells in well | 211 | 114 | inactive |
| Pla2g1b | -0.32 | enough cells in well | 226 | 166 | inactive |
| Siglecf | 0.2 | enough cells in well | 88.3 | 129 | inactive |
| Renbp | -0.37 | enough cells in well | 310 | 153 | inactive |
| Rbm19 | -0.48 | enough cells in well | 178 | 70.6 | inactive |
| Ctnnd2 | -0.83 | enough cells in well | 167 | 159 | inactive |
| Rfxap | -0.88 | enough cells in well | 211 | 148 | inactive |
| Sirt2 | 1.51 | enough cells in well | 451 | 300 | inactive |
| Btg3 | 0.95 | enough cells in well | 199 | 203 | inactive |
| Lao1 | 0.69 | enough cells in well | 283 | 130 | inactive |
| C4bp | 0.67 | enough cells in well | 100 | 258 | inactive |
| Tafazzin | 0.06 | enough cells in well | 222 | 147 | inactive |
| Vmn1r66 | 0.95 | enough cells in well | 161 | 115 | inactive |
| Ces4a | -0.28 | enough cells in well | 174 | 202 | inactive |
| Hirip3 | 0.33 | enough cells in well | 176 | 159 | inactive |
| Dntt | 0.42 | enough cells in well | 270 | 230 | inactive |
| Gsx2 | -0.06 | enough cells in well | 256 | 151 | inactive |
| Uck1 | 0.07 | enough cells in well | 180 | 79.6 | inactive |
| Nmbr | 2.06 | enough cells in well | 338 | 184 | inactive |
| Gata3 | -1.18 | enough cells in well | 165 | 133 | inactive |
| Hes5 | -1.34 | enough cells in well | 144 | 64.5 | active |
| Ssc5d | 1.1 | enough cells in well | 229 | 216 | inactive |
| Tcf20 | -1.31 | enough cells in well | 148 | 63.2 | active |
| Kcnn4 | -0.4 | enough cells in well | 157 | 121 | inactive |
| St8sia6 | 2.17 | enough cells in well | 173 | 177 | inactive |
| Fgfr1op2 | 0.82 | enough cells in well | 327 | 168 | inactive |

Reprinted from the listing for reference:
| target | Tnf reporter robust z-score | fewer than 50 cells in well | Tnf reporter intensity, replicate 1 | Tnf reporter intensity, replicate 2 | Outcome |
| --- | --- | --- | --- | --- | --- |
| Pknox1 | 0.56 | enough cells in well | 298 | 223 | inactive |
| Mug2 | -1.18 | enough cells in well | 159 | 51.1 | inactive |
| Fra10ac1 | 0.87 | enough cells in well | 210 | 198 | inactive |
